Test results as given in PubChem BioAssay AID1487 (National Center for Advancing Translational Sciences (NCATS), 2009).
Where “and” joins values, the source holds several entries; their conditions need not be identical. Identical values can stand only once. The list shows a part of the results. Further columns of the screen follow, without active or inactive calls. Compounds called inactive in the main read-out are mostly missing here. The note in brackets gives the kind of curve behind each potency; many fits are weak.

Assay: qHTS Assay for Modulators of Lamin A Splicing
Settings: HeLa LMNA splicing GFP/RFP minigene ratio, 48 h
How it was run: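 S3 HeLa stable clones carrying a lamin A-EGFP splicing minigene plus DsRed2 were seeded at 600 cells/well in Opti-MEM with 2% FBS, pin-dosed and incubated 48 h at 37°C. Acumen cytometry (488 nm) gave the GFP/RFP total-intensity ratio.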

[1] = measured here: RFP viability control channel
[2] = measured here: GFP splicing reporter channel

Structure (SMILES)	AC50 [1]	AC50 [2]
Cc1ccc(CN2C(=O)S/C(=C\c3ccccc3OCC(=O)O)C2=O)cc1	2.51 µM [rising, partial curve, poor fit]	–
Cc1nn(C)cc1CN(C)C(=O)c1cc(-c2ccccc2)nc2ccc(Br)cc12	0.562 µM [falling, full curve, poor fit]	–
CCC(=O)NC(=S)Nc1cccc(NC(=O)CC)c1	0.891 µM [rising, partial curve]	–
COc1ccc(-c2cn3cccnc3n2)cc1NS(=O)(=O)c1ccccc1	–	6.31 µM [falling, partial curve, poor fit]
CCOC(=O)CSc1ccc(C(=O)Nc2ccc(Cl)cc2)cn1	–	10 µM [falling, partial curve, poor fit]
CCOc1ccc(NC(=O)CCSc2nc3c(c(CC)c2C#N)C(=O)CC(C)(C)C3)cc1	22.4 µM [falling, partial curve, poor fit]	22.4 µM [falling, partial curve, poor fit]
Cc1cc(C)c2c(N)c(C(=O)Nc3nccs3)sc2n1	5.01 µM [rising, single point]	–
CCOC(=O)c1cccc(NC(=O)C2CCCN(S(=O)(=O)c3c(C)n[nH]c3C)C2)c1 (stereo unspecified)	31.6 µM [rising, single point]	–
CC(C)Cn1c(N)c(C(=O)COC(=O)c2cc(C(F)(F)F)nc3ccccc23)c(=O)n(C)c1=O	35.5 µM [rising, single point]	–
COCc1cc(C)nc2c1C(=O)NC(c1ccc(F)cc1)N2Cc1ccccc1 (stereo unspecified)	0.0158 µM [falling, full curve, poor fit]	–
COc1ccc(CNC(=S)Nc2cc(C)cc(C)c2)cc1	31.6 µM [rising, single point]	15.8 µM [rising, single point]
COc1ccccc1N1CCN(C(=O)CCCN2C(=O)c3cccc4cccc(c34)C2=O)CC1	0.0316 µM [rising, full curve, poor fit]	–
CSc1nc(-c2ccccc2)cn1-c1ccc(NC(C)=O)cc1	17.8 µM [rising, partial curve, poor fit]	–
COCC(C)NC(=O)CCS(=O)(=O)c1nc(-c2ccc(OC)cc2)cc(C(F)(F)F)n1 (stereo unspecified)	31.6 µM [falling, single point]	–
Cc1ccc2cc(/C=N/NC(=O)c3ccccc3O)c(Cl)nc2c1	25.1 µM [rising, single point]	35.5 µM [rising, single point]
COc1ccc(C(=O)Nc2cccc(-c3nnc(-c4ccco4)o3)c2)cc1	31.6 µM [rising, single point]	–
COc1ccc(CNc2ncnc3ccc(-c4cccc(NS(C)(=O)=O)c4)cc23)c(OC)c1	6.31 µM [falling, full curve]	6.31 µM [falling, full curve]
O=C(Nc1ccccc1F)N(CCCN1CCOCC1)Cc1cc2cc3c(cc2[nH]c1=O)OCCO3	17.8 µM [rising, single point]	–

Structure (SMILES)	AC50 [1]	AC50 [2]
O=c1c(=O)n(-c2ccc(F)c(F)c2)ccn1Cc1ccc(F)cc1Cl	17.8 µM [falling, partial curve, poor fit]	–
CCOc1ccc(NC(=O)N2CCN(c3nnc(C)c4c(C)n(-c5ccccc5)nc34)CC2)cc1	2 µM [falling, full curve, poor fit]	–
CN(C)/N=N/c1nc[nH]c1C(N)=O	11.2 µM [rising, partial curve, poor fit]	10 µM [rising, partial curve, poor fit]
CCOC(=O)c1noc2ncn(CC(=O)Nc3cccc(C(F)(F)F)c3)c(=O)c12	4.47 µM [falling, single point]	–
CCn1cc([N+](=O)[O-])c(C(=O)N2N=C(c3cccc4ccccc34)CC2c2ccccc2O)n1 (stereo unspecified)	17.8 µM [rising, single point]	–
Clc1cccc(CSc2nnc(-c3c[nH]c4ccccc34)o2)c1	35.5 µM [rising, single point]	–
COc1ccccc1C(=O)N/C(N)=N/c1nc2ccccc2o1	11.2 µM [falling, partial curve]	14.1 µM [falling, single point]
Cc1cc(Nc2cccc(Cl)c2)nc2ccc(NC(=O)c3cncc(Br)c3)cc12	10 µM [falling, partial curve]	11.2 µM [falling, partial curve]
O=S(=O)(/N=C(\c1ccccc1F)N1CCCCC1)c1ccccc1	12.6 µM [falling, partial curve]	–
Cc1ccc(C2Nc3ccc4ccccc4c3C3=C2C(=O)CC(C)(C)C3)o1 (stereo unspecified)	14.1 µM [rising, partial curve, poor fit]	–
O=C(N=Nc1c(O)[nH]c2ccc(Br)cc12)c1ccccc1-n1cccc1	7.08 µM [rising, partial curve]	35.5 µM [rising, single point]
COc1ccc(-c2cc(C(=O)NC3=NCCS3)c3ccccc3n2)cc1OC	–	2 µM [falling, partial curve]
O=C(NC1CCCCCC1)C1CCN(c2nc3ccccc3o2)CC1	7.08 µM [rising, full curve]	–
COC(=O)c1cccc(NC2=NS(=O)(=O)c3ccccc32)c1	0.01 µM [rising, full curve, poor fit]	0.00316 µM [rising, full curve, poor fit]
CCn1c(SCc2c(F)cccc2Cl)nc(=O)c2c(C(=O)OC)cc(C3CC3)nc21	35.5 µM [falling, single point]	31.6 µM [falling, single point]
CCC1CCCCN1S(=O)(=O)c1ccc(S(=O)(=O)N(Cc2ccccn2)CC2CCCO2)cc1 (stereo unspecified)	22.4 µM [rising, single point]	–
OCC(O)C(O)C(O)C(O)CO (stereo unspecified)	15.8 µM [falling, single point] and 1 µM [falling, single point]	31.6 µM [falling, single point]
